Source: PubChem BioAssay AID504804 (Drosophila RNAi Screening Center, 2011)
Screen: 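dsRNAs that improve Kc cell survival under doxorubicin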 (primary screen). System: Drosophila Kc cells. Reagent: long dsRNA against Drosophila genes, 0.5 µg dsRNA per well. Duration: 96 h (48 h knock-down, then 48 h drug). Conditions: doxorubicin 5 µg/ml for 48 h, added 48 h after dsRNA. Detection: 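Viability measured as cellular ATP by luminescence after 48 h knock-down then 48 h doxorubicin at 5 µg/ml; unnormalised plate counts for each replicate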. Scale: raw ATP luminescence: higher = more viable cells, protection from doxorubicin. Rule for the call: 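Active when both duplicate wells lie at least 2 SD above the plate mean and protection is confirmed by rescreening and independent dsRNAs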.
In all, the deposit lists about 19,000 reagents; below is a random part of those with a known target gene and a result. In the full data, 47 (0.25%) got an active call. 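Signals are raw, not normalised; exact z-scores behind calls not deposited; actives needed confirmation, so some wells reaching 2 SD are inactive.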 Entries without a mark were called inactive. The numbers tell different reagents against one gene apart. Names joined by + are all predicted targets of the reagent.

raw ATP luminescence, replicate 1	raw ATP luminescence, replicate 2	predicted target	dsRNA no.
34357	31530	Vps37B (GeneID 40624)	1
61507	54053	Polr2C (GeneID 34796)	1
43403	94723	Pal1 + Pdrg1	1
81630	48940	snk (GeneID 41607)	1
87120	75107	CG13245 (GeneID 50456)	1
1.07e5	81070	Megf8 (GeneID 34099)	1
43153	69020	SoYb (GeneID 34331)	1
74200	47290	CG17191 (GeneID 43249)	1
79050	74657	I-2 (GeneID 39156)	1
58670	74497	Cpr57A + Obp57d	1
52210	64107	Gk1 (GeneID 43913)	1
24937	34067	sns (GeneID 44097)	1
59587	62763	sns (GeneID 44097)	2
1.94e5	2.46e5	sns (GeneID 44097)	3
38407	1.05e5	sns (GeneID 44097)	4
46453	82740	sns (GeneID 44097)	5
28723	38017	sns (GeneID 44097)	6
1.10e5	66117	twy (GeneID 39330)	1
15650	15600	Atf3 (GeneID 43867)	1
59510	57683	Cyp6t2Psi (GeneID 3772355)	1
2.89e5	2.96e5	CG14204 (GeneID 32950)	1
3.37e5	3.47e5	nmdyn-D6 (GeneID 32396)	1
73300	55490	Pmm2 (GeneID 39436)	1
45817	49170	GNBP1 (GeneID 40034)	1
55230	48600	CG31371 (GeneID 43626)	1
44423	47743	aqz (GeneID 41058)	1
32160	24650	Smyd5 (GeneID 42517)	1
84390	61247	TBPH (GeneID 37781)	1
3.37e5	3.18e5	Coq8 (GeneID 32239)	1
47960	27113	140up (GeneID 41720)	1
61610	44630	htt (GeneID 43392)	1
69510	62890	CG12279 (GeneID 41570)	1
28190	33120	syd (GeneID 43905)	1
63660	68760	Ssdp (GeneID 42177)	1
3.12e5	2.93e5	CG6324 (GeneID 32481)	1
49227	46407	ocm (GeneID 37874)	1
96720	66883	Sam-S (GeneID 48552)	1
30387	30157	CG9029 (GeneID 33815)	1
20453	17397	CG14183 (GeneID 40192)	1
54017	56063	CG6574 (GeneID 41308)	1
79200	46373	mfas (GeneID 41455)	1
24283	24737	CG13999 (GeneID 33826)	1
92220	88870	CG9861 (GeneID 37692)	1
35867	62153	SmE (GeneID 34080)	1
55253	52920	CG7290 (GeneID 40211)	1
68357	67193	CG7201 (GeneID 38929)	1
50937	57057	dj (GeneID 40838)	1
3.29e5	3.71e5	CG15200 (GeneID 32060)	1
22163	23613	CG14022 (GeneID 33763)	1
67920	63300	LSm3 (GeneID 42842)	1
2.10e5	1.89e5	RhoGAP102A (GeneID 43781)	1
38720	48060	RhoGAP102A (GeneID 43781)	2
67210	42850	Vps16B (GeneID 43521)	1
27293	26950	CG7430 (GeneID 39988)	1
57840	42030	CG3588 (GeneID 31278)	1
52617	43257	CG32461 (GeneID 318042)	1
69787	57307	CG11726 (GeneID 39275)	1
42657	35087	Sodh2 (GeneID 41313)	1
54443	63737	Ada (GeneID 41092)	1
67490	64977	VhaM9.7-b (GeneID 40389)	1
1.84e5	2.29e5	Ntl (GeneID 34046)	1
34803	31867	CG3792 (GeneID 33717)	1
3.17e5	2.90e5	CG11581 (GeneID 32362)	1
35843	28430	Nrx-IV (GeneID 39387)	1
61633	58813	CR10032 (GeneID 40877)	1
4.73e5	3.87e5	Lsm12a (GeneID 32167)	1
84453	20767	Fst (GeneID 41169)	1
54420	44670	CG12817 (GeneID 41250)	1
1.98e5	2.07e5	inaF-B (GeneID 8674114)	1
46030	54000	Polr2M (GeneID 42309)	1
1.12e5	1.12e5	CG34224 (GeneID 5740585)	1
66510	67560	Zaf1 (GeneID 41394)	1
57643	48407	CG8149 (GeneID 41137)	1
37590	43150	unc-119 (GeneID 31664)	1
3.13e5	3.39e5	comt (GeneID 47091)	1
41590	52620	CG7387 (GeneID 38915)	1
54607	45900	RtcB (GeneID 35220)	1
29030	45570	CG10761 (GeneID 31749)	1
47677	37603	CG13039 (GeneID 39805)	1
2.74e5	3.03e5	r-cup (GeneID 33075)	1
30260	37160	CG4766 (GeneID 31533)	1
2.34e5	2.12e5	CG16894 (GeneID 37280)	1
1.42e5	1.39e5	CG33500 (GeneID 2768957)	1
54017	52727	Obp83b (GeneID 40738)	1

As entered above.
sns (GeneID 44097) #2, raw ATP luminescence, replicate 2: 62763
Under “raw ATP luminescence, replicate 2”, Nrx-IV (GeneID 39387) reads 28430
Value for Gk1 (GeneID 43913) under “raw ATP luminescence, replicate 1”: 52210
CG7387 (GeneID 38915), raw ATP luminescence, replicate 2: 52620
Result for Polr2M (GeneID 42309) in “raw ATP luminescence, replicate 2”: 54000
For “raw ATP luminescence, replicate 1”, I-2 (GeneID 39156) has 79050
